Results taken from the supplement of paper PMC8728848.
This is one part of the list.

Experiments:
Assay in all cases: glycan array binding signal (z-score within array); higher = stronger binding
Settings in all cases: glycan notation: IUPAC condensed, linker removed
[1] = target: Fuc(a1-2)[Gal(a1-3)]Gal(b1-4)GlcNAc(b1-2)Man(a1-3)[Fuc(a1-2)[Gal(a1-3)]Gal(b1-4)GlcNAc(b1-2)Man(a1-6)]Man(b1-4)GlcNAc(b1-4)[Fuc(a1-6)]GlcNAc
Procedure, shortened: (§1)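 The binding signal is a Z-score computed within each array. Data were drawn from 3228 arrays in the Consortium for Functional Glycomics database, restricted to those with a known protein sequence. Scores were averaged over arrays of the same protein sequence at different concentrations or buffers, and over linkers, and negative values can be taken as non-binding.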

[2] = target: Fuc(a1-2)[Gal(a1-3)]Gal(b1-4)GlcNAc(b1-3)GalNAc
Procedure, shortened: as §1

[3] = target: Fuc(a1-2)[Gal(a1-3)]Gal(b1-4)GlcNAc(b1-3)[Fuc(a1-2)[Gal(a1-3)]Gal(b1-4)GlcNAc(b1-6)]GalNAc
Procedure, shortened: as §1

[4] = target: Fuc(a1-2)[Gal(a1-3)]Gal(b1-4)GlcNAc(b1-6)GalNAc
Procedure, shortened: as §1

[5] = target: Fuc(a1-2)[Gal(a1-3)]Gal(b1-4)[Fuc(a1-3)]Glc
Procedure, shortened: as §1

[6] = target: Fuc(a1-2)[Gal(a1-3)]Gal(b1-4)[Fuc(a1-3)]GlcNAc
Procedure, shortened: as §1

[7] = target: Fuc(a1-2)[Gal(a1-3)]Gal(b1-4)[Fuc(a1-3)]GlcNAc(b1-3)GalNAc
Procedure, shortened: as §1

[8] = target: Fuc(a1-2)[Gal(a1-4)]Gal(b1-4)GlcNAc
Procedure, shortened: as §1

[9] = target: Fuc(a1-2)[GalNAc(a1-3)]Gal
Procedure, shortened: as §1

[10] = target: Fuc(a1-2)[GalNAc(a1-3)]Gal(b1-3)GalNAc(a1-3)[Fuc(a1-2)]Gal(b1-4)GlcNAc
Procedure, shortened: as §1

[11] = target: Fuc(a1-2)[GalNAc(a1-3)]Gal(b1-3)GalNAc(b1-3)Gal(a1-4)Gal(b1-4)Glc
Procedure, shortened: as §1

[12] = target: Fuc(a1-2)[GalNAc(a1-3)]Gal(b1-3)GlcNAc
Procedure, shortened: as §1

[13] = target: Fuc(a1-2)[GalNAc(a1-3)]Gal(b1-3)GlcNAc(b1-2)Man(a1-3)[Fuc(a1-2)[GalNAc(a1-3)]Gal(b1-3)GlcNAc(b1-2)Man(a1-6)]Man(b1-4)GlcNAc(b1-4)GlcNAc
Procedure, shortened: as §1

[14] = target: Fuc(a1-2)[GalNAc(a1-3)]Gal(b1-3)GlcNAc(b1-2)Man(a1-3)[Fuc(a1-2)[GalNAc(a1-3)]Gal(b1-3)GlcNAc(b1-2)Man(a1-6)]Man(b1-4)GlcNAc(b1-4)[Fuc(a1-6)]GlcNAc
Procedure, shortened: as §1

[15] = target: Fuc(a1-2)[GalNAc(a1-3)]Gal(b1-3)GlcNAc(b1-3)GalNAc
Procedure, shortened: as §1

[16] = target: Fuc(a1-2)[GalNAc(a1-3)]Gal(b1-3)GlcNAc(b1-6)GalNAc
Procedure, shortened: as §1

[17] = target: Fuc(a1-2)[GalNAc(a1-3)]Gal(b1-4)Glc
Procedure, shortened: as §1

[18] = target: Fuc(a1-2)[GalNAc(a1-3)]Gal(b1-4)GlcNAc
Procedure, shortened: as §1

[19] = target: Fuc(a1-2)[GalNAc(a1-3)]Gal(b1-4)GlcNAc(b1-2)Man
Procedure, shortened: as §1

[20] = target: Fuc(a1-2)[GalNAc(a1-3)]Gal(b1-4)GlcNAc(b1-2)Man(a1-3)[Fuc(a1-2)[GalNAc(a1-3)]Gal(b1-4)GlcNAc(b1-2)Man(a1-6)]Man(b1-4)GlcNAc(b1-4)GlcNAc
Procedure, shortened: as §1

[21] = target: Fuc(a1-2)[GalNAc(a1-3)]Gal(b1-4)GlcNAc(b1-2)Man(a1-3)[Fuc(a1-2)[GalNAc(a1-3)]Gal(b1-4)GlcNAc(b1-2)Man(a1-6)]Man(b1-4)GlcNAc(b1-4)[Fuc(a1-6)]GlcNAc
Procedure, shortened: as §1

[22] = target: Fuc(a1-2)[GalNAc(a1-3)]Gal(b1-4)GlcNAc(b1-3)Gal(b1-4)GlcNAc
Procedure, shortened: as §1

[23] = target: Fuc(a1-2)[GalNAc(a1-3)]Gal(b1-4)GlcNAc(b1-3)Gal(b1-4)GlcNAc(b1-3)Gal(b1-4)GlcNAc
Procedure, shortened: as §1

[24] = target: Fuc(a1-2)[GalNAc(a1-3)]Gal(b1-4)GlcNAc(b1-3)GalNAc
Procedure, shortened: as §1

[25] = target: Fuc(a1-2)[GalNAc(a1-3)]Gal(b1-4)GlcNAc(b1-3)[Fuc(a1-2)[GalNAc(a1-3)]Gal(b1-4)GlcNAc(b1-6)]GalNAc
Procedure, shortened: as §1

[26] = target: Fuc(a1-2)[GalNAc(a1-3)]Gal(b1-4)GlcNAc(b1-6)GalNAc
Procedure, shortened: as §1

[27] = target: Fuc(a1-2)[GalNAc(a1-3)]Gal(b1-4)[Fuc(a1-3)]GlcNAc
Procedure, shortened: as §1

[28] = target: Fuc(a1-2)[GalNAc(a1-3)]Gal(b1-4)[Fuc(a1-3)]GlcNAc(b1-3)GalNAc
Procedure, shortened: as §1

[29] = target: Fuc(a1-2)[GalNAc(a1-4)]Gal(b1-4)GlcNAc
Procedure, shortened: as §1

[30] = target: Fuc(a1-2)[GalNAc(b1-3)]Gal
Procedure, shortened: as §1

B1: SP15308F-bth-333-19-333 (Bacteroides thetaiotaomicron) (protein)
chain: SCNNEWESEQYVQMVSFKAPVNAQGVTPIYIRYKPEGKVTYQLPLIVSGSTMNSKDLNVHVGLDLDTLDVLNVEHFGSRKELFFKPLENKYYEFPETVQIPAGECTSLLPIDFALKDLDQVDKWVLPLAIQSNDPSHNYQANPRKFYRRAMLRISPFNDYSGQYSATAYKVYFKGNEKEAIVPEYHTSYVIDDKTIFFYAGLIDIDRLDRKYYKIKFEFTEEKIDLQTRKLKISSDNEDINLVVKGQPSYTVEEEMDATRPYLKHIYVTINNLEYEFTDYTSVPGYPLEYVVKGSLTMERKINTQIPDEDQAIEW
glycan array binding signal (z-score) [1]: -0.478
glycan array binding signal (z-score) [2]: 0.117
glycan array binding signal (z-score) [3]: -0.031
glycan array binding signal (z-score) [4]: -0.488
glycan array binding signal (z-score) [5]: -0.455
glycan array binding signal (z-score) [6]: 0.155
glycan array binding signal (z-score) [7]: -0.349
glycan array binding signal (z-score) [8]: 0.561
glycan array binding signal (z-score) [9]: -0.209
glycan array binding signal (z-score) [10]: -0.921
glycan array binding signal (z-score) [11]: -0.107
glycan array binding signal (z-score) [12]: -0.797
glycan array binding signal (z-score) [13]: -1.44
glycan array binding signal (z-score) [14]: -0.601
glycan array binding signal (z-score) [15]: 0.286
glycan array binding signal (z-score) [16]: -0.116
glycan array binding signal (z-score) [17]: 0.652
glycan array binding signal (z-score) [18]: -0.582
glycan array binding signal (z-score) [19]: -0.687
glycan array binding signal (z-score) [20]: -0.498
glycan array binding signal (z-score) [21]: -0.115
glycan array binding signal (z-score) [22]: -0.619
glycan array binding signal (z-score) [23]: 0.048
glycan array binding signal (z-score) [24]: 0.27
glycan array binding signal (z-score) [25]: 0.11
glycan array binding signal (z-score) [26]: 0.488
glycan array binding signal (z-score) [27]: 0.351
glycan array binding signal (z-score) [28]: 1.05
glycan array binding signal (z-score) [29]: 0.042
glycan array binding signal (z-score) [30]: -1.22
